Measurements: BindingDB's records for PubMed 7908055 (Case Western Reserve University, 1994)
Where a name gives a salt, the structure may show the parent alone.

By UniProt entry, the sequences of proteins in these tests, tags left out.
UniProt P32305, whole entry: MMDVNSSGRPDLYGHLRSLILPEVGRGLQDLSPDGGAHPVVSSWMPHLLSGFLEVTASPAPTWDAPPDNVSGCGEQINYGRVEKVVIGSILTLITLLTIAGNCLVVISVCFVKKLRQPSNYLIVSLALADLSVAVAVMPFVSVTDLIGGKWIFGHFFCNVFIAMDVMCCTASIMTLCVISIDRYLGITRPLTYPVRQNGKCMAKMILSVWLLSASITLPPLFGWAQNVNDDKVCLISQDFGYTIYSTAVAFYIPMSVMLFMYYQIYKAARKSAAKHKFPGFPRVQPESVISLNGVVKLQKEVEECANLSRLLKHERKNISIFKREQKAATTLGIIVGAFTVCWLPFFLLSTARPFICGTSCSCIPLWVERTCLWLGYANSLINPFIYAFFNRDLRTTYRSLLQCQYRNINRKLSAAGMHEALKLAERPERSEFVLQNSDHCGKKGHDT

Biological target: 5-hydroxytryptamine receptor 7 (Rattus norvegicus, UniProt P32305)

SMILES: OCCN1CCN(CCCN2c3ccccc3Sc3ccc(C(F)(F)F)cc32)CC1 [2-[4-[3-[2-(trifluoromethyl)phenothiazin-10-yl]propyl]piperazin-1-yl]ethanol;hydrochloride]
- Ki: 8 nM
